In PMC8537493 one finds binding data, which are given here for one substance.

Results are given in words; binding and its absence hold for the method and conditions named. In cells and extracts the contact can be indirect. Binding calls can cover weak binding; strength is not graded here.

Experiment [1] has as its target T1, P2X4 receptor (P2X4R) (human (endogenous in immortalized human microglial cells)) (UniProt Q99571).
T1 sequence: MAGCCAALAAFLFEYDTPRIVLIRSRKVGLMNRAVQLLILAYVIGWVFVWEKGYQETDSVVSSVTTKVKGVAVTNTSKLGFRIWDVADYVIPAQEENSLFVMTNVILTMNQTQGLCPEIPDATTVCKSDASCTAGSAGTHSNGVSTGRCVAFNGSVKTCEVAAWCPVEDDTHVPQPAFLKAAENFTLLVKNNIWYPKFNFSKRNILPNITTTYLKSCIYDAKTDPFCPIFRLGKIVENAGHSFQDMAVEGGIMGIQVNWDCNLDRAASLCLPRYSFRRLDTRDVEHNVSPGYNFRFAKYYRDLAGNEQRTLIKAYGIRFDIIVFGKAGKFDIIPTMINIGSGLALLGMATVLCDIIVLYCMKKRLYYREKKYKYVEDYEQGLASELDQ
The experiment can be described thus: proximity ligation; Duolink in situ PLA on fixed, permeabilised human microglial cells with antibodies against MFG-E8 and P2X4; cells untreated or treated with 1 AU of EVs for 30 min, 1 h and 2 h (2 h: PLA dots 4.3-fold of control).

In experiment [2] the target is T1, P2X4 receptor (P2X4R) (human (endogenous in immortalized human microglial cells)). The experiment in a line: co-IP; lysates of human microglial cells (Pierce IP lysis buffer), treated or not with EVs for 2 h; immunoprecipitation with antibody against P2X4 receptor or against MFG-E8, protein A/G agarose, 4 °C; blots for MFG-E8 and P2X4 receptor.

For the substance “milk fat globule-epidermal growth factor-factor VIII (MFG-E8)”, the binding entry in experiment [1] and in experiment [2] was “binds” throughout.
